Measurements reported in PubChem BioAssay AID743454 (Peter MacCallum Cancer Centre, 2014).
The deposit covers about 18,000 reagents; shown is a part drawn at random. Of all reagents, 450 (2.5%) were called active. 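Single biological run; no consistent viability z cut-off exists, so the class columns, not z-scores, define the calls.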 Unmarked entries are inactive.

Assay: 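Genes whose loss kills vorinostat-resistant colon cancer cells under vorinostat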 (primary screen)
System: human HCT116-VR colon cancer cells, selected for vorinostat resistance
Knock-down reagent: siRNA pool against human genes, 40 nM siRNA pool
Timing: vorinostat for 24 h, read-out about 72 h after transfection
Challenge: vorinostat at 2.5 µM final
Measurement: 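Cell viability by CellTiter-Fluor and caspase 3/7 activity by luminescence, each scaled to mock wells per plate, duplicates averaged, then robust z-scored over all plates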
Direction: viability robust z-score: higher = more viable cells than screen typical; caspase robust z-score: higher = more caspase 3/7 activity than screen typical
Active means: 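Hits are knock-downs in viability class RV1/RV2 or caspase class CA1/CA2, excluding ones that killed cells in the no-drug cell-count arm; hits then retested with single siRNAs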

gene	viability hit class	caspase hit class	viability robust z-score	caspase robust z-score
EPS8L3 (GeneID 79574)	no change	no change	1.17	-0.53
LIPA (GeneID 3988)	no change	no change	-0.41	0.03
HNRNPC (GeneID 3183)	no change	no change	-2.99	4.75
ANO2 (GeneID 57101)	no change	no change	0.18	-0.48
BAGE3 (GeneID 85318)	no change	no change	-1.57	0.98
IL32 (GeneID 9235)	no change	no change	0.43	-0.28
UGT3A2 (GeneID 167127)	no change	no change	0.55	-0.46
LIPE (GeneID 3991)	no change	no change	0.03	1.12
RPL4 (GeneID 6124)	no change	no change	-4.72	-1.16
CGNL1 (GeneID 84952)	no change	no change	0.76	-0.44
SYTL1 (GeneID 84958)	no change	no change	0.84	-0.02
TBX2 (GeneID 6909)	no change	no change	0.3	-0.44
CCM2L (GeneID 140706)	no change	no change	-1.1	0.01
KLK4 (GeneID 9622)	no change	no change	0.6	0.66
MYH11 (GeneID 4629)	no change	no change	-0.62	2
DPY19L2 (GeneID 283417)	no change	no change	0.22	-0.93
ZNF391 (GeneID 346157)	no change	no change	0.68	0.52
ATP6V1H (GeneID 51606)	no change	no change	0.96	-0.76
FGF10 (GeneID 2255)	no change	no change	-0.22	3.66

3 entries from above, arranged by “caspase robust z-score”, high to low.
gene	viability hit class	caspase hit class	viability robust z-score	caspase robust z-score
SYTL1 (GeneID 84958)	no change	no change	0.84	-0.02
CGNL1 (GeneID 84952)	no change	no change	0.76	-0.44
RPL4 (GeneID 6124)	no change	no change	-4.72	-1.16

Further reagents follow:
gene	viability hit class	caspase hit class	viability robust z-score	caspase robust z-score
PRRX2 (GeneID 51450)	no change	no change	1.62	-0.46
SPSB2 (GeneID 84727)	no change	no change	-0.32	-0.43
ZNF491 (GeneID 126069)	no change	no change	0.86	-0.78
NKX3-1 (GeneID 4824)	no change	no change	0.96	-0.16
OBP2A (GeneID 29991)	no change	no change	1.07	1.37
KATNAL1 (GeneID 84056)	no change	no change	-1.04	0.6
ATG4C (GeneID 84938)	no change	no change	-0.85	0.92
IFNE (GeneID 338376)	no change	no change	-3.48	-0.2
OR4L1 (GeneID 122742)	no change	no change	-0.5	-1.06
TMEM179 (GeneID 388021)	no change	no change	0.3	0.32
TRMT61A (GeneID 115708)	no change	no change	0.67	-0.69
PIGQ (GeneID 9091)	no change	no change	-0.2	1.25
GARRE1 (GeneID 9710)	no change	no change	1.76	1.36
STIMATE (GeneID 375346)	no change	no change	1.34	-0.97
COL19A1 (GeneID 1310)	no change	no change	-0.06	-0.6
ATP8B4 (GeneID 79895)	no change	no change	-1.05	-0.26
ERAP2 (GeneID 64167)	no change	no change	0.4	-0.55
CROT (GeneID 54677)	no change	no change	-0.45	-0.83
IFNA8 (GeneID 3445)	no change	no change	-0.48	-1.23
CPSF1 (GeneID 29894)	no change (active)	CA1 (caspase activation)	-0.11	5.18
KCNJ12 (GeneID 3768)	no change	no change	0.7	0.19
MTA3 (GeneID 57504)	no change	no change	0.4	-0.28
OSBPL6 (GeneID 114880)	no change (active)	CA1 (caspase activation)	-0.8	5.16
SERPINE2 (GeneID 5270)	no change	no change	-1.35	2.71
CCT8L2 (GeneID 150160)	no change	no change	0.16	0.3
CIMIP4 (GeneID 339669)	no change	no change	-0.66	-0.6
RNF38 (GeneID 152006)	no change	no change	0	-0.7
USP27X (GeneID 389856)	no change	no change	1.52	-0.76
CLC (GeneID 1178)	no change	no change	0.01	-0.96
SIRAL1 (GeneID 79607)	no change	no change	0.12	-0.96
IFRD1 (GeneID 3475)	no change	no change	0.89	-0.97
MGME1 (GeneID 92667)	no change	no change	-0.19	-0.92
H4C7 (GeneID 8369)	no change	no change	-1.1	-0.16
CALY (GeneID 50632)	no change	no change	1.4	0.03
POLD4 (GeneID 57804)	no change	no change	-1.42	-0.64
PGLYRP3 (GeneID 114771)	no change	no change	-0.43	0.33
MS4A13 (GeneID 503497)	no change	no change	0.01	-1.19
HOXC11 (GeneID 3227)	no change	no change	0.82	1.35
